Measured values taken from the supplement of paper PMC6078165.
Values are relative to the signal before dosing, not to a vehicle control; the signal also falls without drug.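 Fibroblast labels name human fibroblasts: mostly primary ones from tissues such as uterus (C12385, HUF), lung (H6013), bone (Hs27A), adrenal (HADF) and skin (WS1), plus mammary HMF and breast cancer-associated Hs343T. The cancer cells are basal-like or mesenchymal-like triple-negative breast cancer lines. The paper calls a changed response a hit when it shifts by more than 3x the replicate standard deviation. The tissue of the other fibroblasts is not given here.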

Tested on: BT20
Test: relative JC-1 red fluorescence (viability) vs pre-drug, coculture with fibroblast (fraction); higher = more viable cancer cells
Conditions: 100 µM
Description: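 JC-1 labelled TNBC cells cocultured 1:1 (1,500 cells each) with CellTrace Violet stained primary or stromal fibroblasts in 384-well plates in FluoroBrite medium, treated with one of 42 anticancer drugs at 0.1, 1, 10 or 100 uM. JC-1 red fluorescence (mitochondrial integrity in cancer cells only) was read by plate reader every 8 h for 72 h. Values are normalised to each well's pre-drug value. The stock of one drug was tenfold lower, so its dose labels may be too high.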

O=NN(CCCl)C(=O)NCCCl [Carmustine]
relative JC-1 red fluorescence
Conditions	8 h	16 h	24 h	32 h	40 h	48 h	56 h	64 h	72 h
coculture fibroblast: C12385	0.86	0.81	0.814	0.771	0.718	0.697	0.669	0.65	0.629
coculture fibroblast: H6013	0.962	0.854	0.871	0.836	0.854	0.797	0.828	0.807	0.825
coculture fibroblast: H6019	0.853	0.806	0.809	0.751	0.708	0.701	0.667	0.648	0.629
coculture fibroblast: H6076	0.9526	0.906	0.869	0.852	0.854	0.854	0.88	0.802	0.761
coculture fibroblast: H6231	0.946	0.864	0.784	0.737	0.7019	0.667	0.648	0.63	0.619
coculture fibroblast: HADF	0.9387	0.898	0.887	0.845	0.827	0.823	0.817	0.829	0.802
coculture fibroblast: HCFa	0.9585	0.896	0.826	0.877	0.856	0.858	0.855	0.883	0.799
coculture fibroblast: HCPF	0.975	0.9	0.825	0.773	0.741	0.705	0.677	0.657	0.622
coculture fibroblast: HHSteC	0.9264	0.904	0.905	0.835	0.814	0.795	0.791	0.773	0.753
coculture fibroblast: HMF	0.98	0.866	0.7443	0.6812	0.626	0.584	0.555	0.532	0.495
coculture fibroblast: HPFa	0.9016	0.867	0.8534	0.787	0.7609	0.7252	0.716	0.696	0.657
coculture fibroblast: HUF	0.882	0.812	0.791	0.713	0.669	0.639	0.632	0.63	0.622
coculture fibroblast: Hs5	0.97666	0.914	0.87	0.831	0.811	0.788	0.784	0.777	0.765
coculture fibroblast: Hs27A	0.79	0.974	0.956	0.906	0.872	0.881	0.87	0.868	0.823
coculture fibroblast: Hs343T	0.948	0.895	0.776	0.7	0.635	0.5755	0.518	0.479	0.427
coculture fibroblast: WS1	0.837	0.778	0.74	0.669	0.61	0.582	0.549	0.522	0.506
